Data: article PMC6481345, “A novel anti-melanoma SRC-family kinase inhibitor” (Oncotarget, 2019)

Tests used:
Experiment in all cases: CellTiter-Glo Luminescent Cell Viability Assay
Type in all cases: cell-based, human
501 mel melanoma cells = test system: 501 mel melanoma cells
Method: (§1) The melanoma cells were grown in OptiMEM (Invitrogen, Carlsbad, CA) supplemented with 5% fetal calf serum and antibiotics. The normal human melanocytes (NBMEL) were grown in medium supplemented with bFGF, IBMX and dbcAMP [32]. Most of the Yale melanoma cell lines were characterized by next-generation sequencing (Supplementary Table 2).
(§2) Cell proliferation was measured with the CellTiter-Glo® Luminescent Cell Viability Assay (Promega Corporation, Madison, WI). Melanoma cells were seeded in 96-well plates in triplicate or quadruplet wells, with increasing concentrations of kinase inhibitors for 72 hrs. The rate of proliferation was also tested after knockdown of different SRC-family kinases (SFK) with hairpin lentivirus shRNA as indicated. […] The statistical significance of synergism of response to drug combinations was evaluated by following Chou and Talalay algorithm. See also details in Supplementary Material.

YUROB melanoma cells = test system: YUROB melanoma cells
Method: as §1, §2

YUSIK melanoma cells = test system: YUSIK melanoma cells
Method: as §1, §2

[1] = 501 mel BRAF V600E, Variation 2

SMILES	m (slope, median-effect equation) (501 mel melanoma cells; [1])	m (slope, median-effect equation) (501 mel melanoma cells; 501 mel BRAFV600E, Variation 1)	m (slope, median-effect equation) (YUROB melanoma cells; YUROB HRAS Q61K, Variation 2)	m (slope, median-effect equation) (YUROB melanoma cells; YUROB HRASQ61K, Variation 1)	m (slope, median-effect equation) (YUSIK melanoma cells; YUSIK BRAF V600E, Variation 2)	m (slope, median-effect equation) (YUSIK melanoma cells; YUSIK BRAFV600E, Variation 1)
Cn1cnc2c(F)c(Nc3ccc(Br)cc3Cl)c(C(=O)NOCCO)cc21 [AZD6244, selumetinib, reference compound]	0.521 ± 0.09853	1.136 ± 0.7177	0.3136 ± 0.04218	0.3136 ± 0.04218	0.7634 ± 0.167	0.7634 ± 0.167
Nc1ncnc2c1c(-c1ccc(Oc3ccccc3)cc1)nn2C[C@@H]1SSC[C@@H]1O [SAB298, (3S, 4S)-3-((4-amino-3-(4-phenoxyphenyl)-1H-pyrazolo[3,4-d]pyrimidin-1-yl)methyl)-1,2-dithiolan-4-ol]	0.4344 ± 0.08859	1.524 ± 0.9375	0.5976 ± 0.07865	1.666 ± 0.9206	1.122 ± 0.2495	2.852 ± 0.6764
